Laboratory results from publication PMC10612246.
No constants are given. Whether binding was seen depends on the method and setting. Binding seen in cells or lysates may run through a third protein. Some results given as binding are weak or reduced against the parent protein; the word gives no strength.

Sequences of proteins named here, by UniProt entry; tags and fusion partners are left off. Residues count along the entry.
UniProt P31750: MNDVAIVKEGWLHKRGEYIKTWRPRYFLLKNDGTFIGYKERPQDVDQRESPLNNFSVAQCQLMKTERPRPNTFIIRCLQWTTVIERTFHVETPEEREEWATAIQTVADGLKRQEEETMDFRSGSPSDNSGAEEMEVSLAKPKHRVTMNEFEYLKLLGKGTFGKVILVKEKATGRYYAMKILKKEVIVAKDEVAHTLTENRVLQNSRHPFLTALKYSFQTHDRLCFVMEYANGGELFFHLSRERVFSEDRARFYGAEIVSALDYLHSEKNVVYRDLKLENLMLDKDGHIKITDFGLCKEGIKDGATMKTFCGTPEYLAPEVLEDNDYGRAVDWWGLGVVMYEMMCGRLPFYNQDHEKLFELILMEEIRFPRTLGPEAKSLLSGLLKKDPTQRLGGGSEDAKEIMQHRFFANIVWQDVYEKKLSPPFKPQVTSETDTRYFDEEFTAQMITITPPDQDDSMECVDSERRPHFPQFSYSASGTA
UniProt Q03265, residues 44-553: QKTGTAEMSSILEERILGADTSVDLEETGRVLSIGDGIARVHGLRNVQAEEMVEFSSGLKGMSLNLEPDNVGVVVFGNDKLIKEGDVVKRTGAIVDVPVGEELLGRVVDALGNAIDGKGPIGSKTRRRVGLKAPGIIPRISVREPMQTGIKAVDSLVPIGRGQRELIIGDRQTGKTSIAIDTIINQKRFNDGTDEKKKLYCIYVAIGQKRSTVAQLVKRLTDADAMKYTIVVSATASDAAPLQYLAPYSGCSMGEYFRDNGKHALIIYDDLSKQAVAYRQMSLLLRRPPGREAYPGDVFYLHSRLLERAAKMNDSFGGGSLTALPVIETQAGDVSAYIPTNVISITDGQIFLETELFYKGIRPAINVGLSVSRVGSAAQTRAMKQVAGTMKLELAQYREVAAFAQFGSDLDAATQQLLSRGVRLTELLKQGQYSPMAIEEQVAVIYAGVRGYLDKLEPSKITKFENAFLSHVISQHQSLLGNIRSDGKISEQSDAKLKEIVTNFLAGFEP
UniProt P56480, residues 47-529: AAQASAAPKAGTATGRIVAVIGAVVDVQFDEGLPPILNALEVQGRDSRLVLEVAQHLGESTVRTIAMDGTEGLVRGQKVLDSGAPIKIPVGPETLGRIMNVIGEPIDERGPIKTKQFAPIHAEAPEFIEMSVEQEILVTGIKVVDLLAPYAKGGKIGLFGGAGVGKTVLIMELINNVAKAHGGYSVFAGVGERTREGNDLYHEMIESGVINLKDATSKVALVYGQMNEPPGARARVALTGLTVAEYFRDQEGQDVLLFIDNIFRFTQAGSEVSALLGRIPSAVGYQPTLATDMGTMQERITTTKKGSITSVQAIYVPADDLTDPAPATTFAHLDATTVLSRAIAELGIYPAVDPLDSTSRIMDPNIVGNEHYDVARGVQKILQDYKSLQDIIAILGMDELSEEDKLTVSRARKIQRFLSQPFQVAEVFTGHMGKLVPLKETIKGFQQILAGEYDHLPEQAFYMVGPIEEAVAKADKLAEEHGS
UniProt Q9CR84, residues 62-136: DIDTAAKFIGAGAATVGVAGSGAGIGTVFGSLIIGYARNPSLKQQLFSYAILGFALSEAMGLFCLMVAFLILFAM

B1: ATP synthase subunit b1 (protein, UniProt Q9CQQ7 43-256)
chain: PLPPLPEYGGKVRLGLIPEEFFQFLYPKTGVTGPYVLGTGLSLYFLSKEIYVITPETFSTISVVGLIVYVIKKYGASFGEFIDKLNEEKIAQLEEVKQSSMKQIQDAIDMEKAQQALVQKRHYLFDVQRNNIALALEVTYRERLHKAYKEVKNRLDYHISVQNMMRRKEEEHMIDWVEKHVVKSISVQQEKETIAKCIEDLKLLAKKAQAQPIM

target: AKT1 (mouse (endogenous in mouse heart)) (UniProt P31750); assay: co-IP; soluble mitochondrial proteins from isolated cardiac mitochondria of control and TAM-CAMDAKT mice, co-immunoprecipitated with AKT1, western blot of ATP synthase subunits (n = 3 each group)

binding, binds:
ATP synthase subunit alpha (from UniProt Q03265 44-553)
ATP synthase subunit beta (from UniProt P56480 47-529)
ATP synthase subunit c (from UniProt Q9CR84 62-136)
B1
